# According to article PMC7819943, “Rice protein-binding microarrays: a tool to detect cis-acting elements near promoter regions in rice”:
# Amino acid sequences for entries named in this document (tags omitted).
# UniProt Q0JBA9, entry or part of it: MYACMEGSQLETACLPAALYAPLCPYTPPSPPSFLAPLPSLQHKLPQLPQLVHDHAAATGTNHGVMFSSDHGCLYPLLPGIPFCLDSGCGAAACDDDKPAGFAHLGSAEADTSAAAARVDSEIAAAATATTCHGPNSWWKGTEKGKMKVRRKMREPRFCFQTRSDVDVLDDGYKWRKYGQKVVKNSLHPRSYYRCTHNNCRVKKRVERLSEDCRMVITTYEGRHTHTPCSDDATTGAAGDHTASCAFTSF
# This is one part of the list.
# Biological target: OsWRKY34 (Oryza sativa, UniProt Q0JBA9 1-250)
# Experiment: protein-binding microarray (RPBM); PBS, 2% BSA, 51.3 ng/ul salmon testes DNA, 50 uM zinc acetate, 200 nM TF, 25 C, 1 h; high values mean tight binding
# Settings: protein: recombinant; tags: N-terminal polyhistidine and DsRed monomer fusion (pET32a); label: CyDye5-dUTP incorporated in the synthesized complementary strand; 3' TTTTT single-stranded linker to array surface; dsDNA, one strand shown
# Method in brief: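 Transcription factors were each fused at the N-terminus to a polyhistidine tag plus DsRed and expressed in E. coli BL21-CodonPlus before Ni–NTA purification. Binding to a double-stranded custom Agilent array was carried out with 200 nM protein at 25 °C for 1 h in PBS, 2% BSA, salmon testes DNA and 50 µM zinc acetate. The binding signal is per-feature fluorescence intensity, in arbitrary units, on an Axon 4000B scanner.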
row,Sequence,binding signal
1,ATTTGCACGGGCACATGAAGATTGTTACTGTTCTCGACTTCGGAGTCACCTAGTGCAG,8710 fluorescence intensity (a.u.)
2,AGCTAGCTAACCTTGGTCTCCCATCTCATGTTAGGTTTATCGGAGTCACCTAGTGCAG,8540 fluorescence intensity (a.u.)
3,TTCTACCTTAGTCAAACACTAAAACTATGCAGTATCTTTTCGGAGTCACCTAGTGCAG,8960 fluorescence intensity (a.u.)
4,GTTGTTTTGCCGATATTTGCGGGTTCATTAATTTTCTTTTCGGAGTCACCTAGTGCAG,9060 fluorescence intensity (a.u.)
5,ATGAGACTGTCATATTGTTACGCTTTATCTTACCAACATTCGGAGTCACCTAGTGCAG,9010 fluorescence intensity (a.u.)
6,CCATTTTCTCTCTCGCTCGGTTTGCTGCTCTCCTCCTCCTCGGAGTCACCTAGTGCAG,9000 fluorescence intensity (a.u.)
7,ACCCATTGCAATGCTTCATCTCCATCACTTGCATCCTTGTCGGAGTCACCTAGTGCAG,9950 fluorescence intensity (a.u.)
8,AGAATTTATATTACTGTGCGAATACTGTTTCCATTTCAAACGGAGTCACCTAGTGCAG,8940 fluorescence intensity (a.u.)
9,ACAACACGCCGCCTCGCCTGCCCATCCCGTCCAACCCACGCGGAGTCACCTAGTGCAG,9200 fluorescence intensity (a.u.)
10,GTCCACAAATTTGGTAGCAACAGAGATCATTTATATATTGCGGAGTCACCTAGTGCAG,8150 fluorescence intensity (a.u.)
11,CTCTCCTCCGCCGCCTCCTCCTCACTAGTGACGACACCACCGGAGTCACCTAGTGCAG,8170 fluorescence intensity (a.u.)
12,GCTCACCACGACTAATCCTAGTGCTATAAGCAGCGACCAACGGAGTCACCTAGTGCAG,8380 fluorescence intensity (a.u.)
13,CCTTAGTCTGGTTGGAGGGAGATTTTCGGCCATGCAAAACCGGAGTCACCTAGTGCAG,8110 fluorescence intensity (a.u.)
14,CAGGTGGGGACCTGTCGGGGAGAGAGGGAGGGGAAAACGGCGGAGTCACCTAGTGCAG,9470 fluorescence intensity (a.u.)
15,CGGACACGGCCTCGTCAGGGTTCTTGCTAGTTCTTGTAGTCGGAGTCACCTAGTGCAG,10000 fluorescence intensity (a.u.)
16,ACCTGAAGTCTCTGCCTTGACATTTACAGGTGCGGTTGAACGGAGTCACCTAGTGCAG,8600 fluorescence intensity (a.u.)
17,GCAAATGGGATCTGCGAGCCTTTCTTTCTTTCCTTCCCTACGGAGTCACCTAGTGCAG,8730 fluorescence intensity (a.u.)
18,TTATTTAGTGTTGCACATAGTGTTATTTATATGTTTCATTCGGAGTCACCTAGTGCAG,8060 fluorescence intensity (a.u.)
19,GCCTGCTTACTTTCTGCCACCTTTATCTTGCCTAAACAGGCGGAGTCACCTAGTGCAG,8980 fluorescence intensity (a.u.)
20,ATTTTACCAGTCTTGGAGATTTTAATCTTGTATAGTTTTCCGGAGTCACCTAGTGCAG,9110 fluorescence intensity (a.u.)
21,GCCATACGATCGGAACGAATTCTATTGGCCGTTTCACTTTCGGAGTCACCTAGTGCAG,8070 fluorescence intensity (a.u.)
22,CTCACCAAGTCATGATCTCTGCGTCGCTTTACAACAAACTCGGAGTCACCTAGTGCAG,9220 fluorescence intensity (a.u.)
23,TGCATGTCTTATGCATACTCACTACACATATACACATCATCGGAGTCACCTAGTGCAG,8780 fluorescence intensity (a.u.)
24,TCTCTTTTCACCCACCGCACCCATCCAACTTCTCTTCTCTCGGAGTCACCTAGTGCAG,17900 fluorescence intensity (a.u.)
25,CGGGTGGGGATGGGCTGGATCTGGATTGATTGGGAGTGTTCGGAGTCACCTAGTGCAG,15200 fluorescence intensity (a.u.)
26,GAGCCTATAAATAACCATTGTGGATGCCTTCCATGTTGACCGGAGTCACCTAGTGCAG,8640 fluorescence intensity (a.u.)
27,TCTTCCATTACTACTAGTCTACTACTCTCTCGCTCTTTCTCGGAGTCACCTAGTGCAG,9290 fluorescence intensity (a.u.)

# 2 entries from above, set out differently.
row	Sequence	binding signal
7	ACCCATTGCAATGCTTCATCTCCATCACTTGCATCCTTGTCGGAGTCACCTAGTGCAG	9950 fluorescence intensity (a.u.)
8	AGAATTTATATTACTGTGCGAATACTGTTTCCATTTCAAACGGAGTCACCTAGTGCAG	8940 fluorescence intensity (a.u.)

# (cont.)

row,Sequence,binding signal
1,TTGGTTCATTGTGGTTTTCTAGGCCTTTATAATTTCTTCACGGAGTCACCTAGTGCAG,9460 fluorescence intensity (a.u.)
2,GACCTGATCACCTGAGCCAGTCCACGTACGTACGCCCGACCGGAGTCACCTAGTGCAG,8420 fluorescence intensity (a.u.)
3,ATTTTTGACGCTTCCGCAATGCTTATGTTTTAGAGGAGTTCGGAGTCACCTAGTGCAG,9120 fluorescence intensity (a.u.)
4,GTGAGGACGGCCTGCGGGTGCATGCGGGCGCAACAAGTAGCGGAGTCACCTAGTGCAG,17500 fluorescence intensity (a.u.)
5,TCTCATCGATCTTATAGGTTCATTGTATACGCAACCCAAACGGAGTCACCTAGTGCAG,8610 fluorescence intensity (a.u.)
6,GACTATGCGTCTATGCCCTACGCGGCTACGCCTCGATCACCGGAGTCACCTAGTGCAG,8570 fluorescence intensity (a.u.)
7,TCCCCGTGGCATGGCAGCAATAGATGGGCAGCGGCGTCGGCGGAGTCACCTAGTGCAG,10900 fluorescence intensity (a.u.)
8,TGCGGTTGGCTATAAATCGGTAGCCCGACTGGCTACAAATCGGAGTCACCTAGTGCAG,8820 fluorescence intensity (a.u.)
9,TACTCTCTCTTTTCCATAAAGGTTTCATTTTTGGGTTTTTCGGAGTCACCTAGTGCAG,8390 fluorescence intensity (a.u.)
10,CTCTCTTTCTTTCGATGCTTCGACGAACTTGACTATTTGCCGGAGTCACCTAGTGCAG,8500 fluorescence intensity (a.u.)
11,TATATGTTGTTGTTTTATGAAATTTATTTTTTTTTTAAATCGGAGTCACCTAGTGCAG,8430 fluorescence intensity (a.u.)
12,TTTACCCTTAGCTACATATATATTTGTGTTCGTCCTATCCCGGAGTCACCTAGTGCAG,10200 fluorescence intensity (a.u.)
13,TCTCCATCTGTATGCGTAACCTGACGCCGCCGTCGCCTCCCGGAGTCACCTAGTGCAG,10300 fluorescence intensity (a.u.)
14,ATGTGGTAAAAAAGTGCCATTCACTCTCTTTAATTTTCACCGGAGTCACCTAGTGCAG,8750 fluorescence intensity (a.u.)
15,CCGTCGCCGTCTCCCGCCTCATCAAGCTCTGCGTCCGCCACGGAGTCACCTAGTGCAG,10200 fluorescence intensity (a.u.)
16,AAATGCATATCTATAGCTCGTGTGTTGTGATGGTTGGCTACGGAGTCACCTAGTGCAG,8570 fluorescence intensity (a.u.)
17,ATCCTCTCTCACTTAGAACAACCCAATCATCTCCTTGTAACGGAGTCACCTAGTGCAG,8670 fluorescence intensity (a.u.)
18,ATTGGAGGGAAGAATTGCTTCCATGCTTACTCAACCTTACCGGAGTCACCTAGTGCAG,8130 fluorescence intensity (a.u.)
19,TCTTGGCGCTGTCGGTGTGTGGGTGGCGTTATATTTTTTTCGGAGTCACCTAGTGCAG,9900 fluorescence intensity (a.u.)
20,GTGGTGTGCGTCGCGTGGAGACATGTGCGAAATGCCGGGGCGGAGTCACCTAGTGCAG,8300 fluorescence intensity (a.u.)
21,AGTTGCTTTTGTTGGGTTCAAATTCTGGCCCGTCACAGGCCGGAGTCACCTAGTGCAG,9120 fluorescence intensity (a.u.)
22,ATTTAGTGGGCATGTTCTTCTCCATTCTCTTCATGTGTACCGGAGTCACCTAGTGCAG,9040 fluorescence intensity (a.u.)
23,AAGAAGTTAACAGAGCCCACAGGCCACAGATGTGTTTGACCGGAGTCACCTAGTGCAG,8410 fluorescence intensity (a.u.)
24,GCTAGAAAATAGTGGGGATGGTGTATGCATTGAGTTTGTTCGGAGTCACCTAGTGCAG,15800 fluorescence intensity (a.u.)
25,TCTATTCATAGTCAAATTTGTTATTTTTGTTTCTAATTGTCGGAGTCACCTAGTGCAG,11200 fluorescence intensity (a.u.)
26,GCTACCACCACCCATCCCCACCACCACCACCACCTCCCTTCGGAGTCACCTAGTGCAG,9500 fluorescence intensity (a.u.)
27,TGGTCAACACCGATGTGCTTCTAGTACTTCTCTTTTCTCACGGAGTCACCTAGTGCAG,9570 fluorescence intensity (a.u.)
